The supplement of paper PMC12819154, “High-throughput peptide-centric local stability assay extends protein–ligand identification to membrane proteins, tissues and bacteria” (Nature Structural & Molecular Biology, 2025)
The other results are listed elsewhere or left out. Most entries show no effect beyond the scatter of the controls.

Sequences of proteins named here, by UniProt entry; tags and fusion partners are left off. A change or cut given only in a name is not applied to a line headed by its entry.
UniProt P62328: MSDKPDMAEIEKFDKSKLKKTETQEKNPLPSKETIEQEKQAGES
UniProt P57729: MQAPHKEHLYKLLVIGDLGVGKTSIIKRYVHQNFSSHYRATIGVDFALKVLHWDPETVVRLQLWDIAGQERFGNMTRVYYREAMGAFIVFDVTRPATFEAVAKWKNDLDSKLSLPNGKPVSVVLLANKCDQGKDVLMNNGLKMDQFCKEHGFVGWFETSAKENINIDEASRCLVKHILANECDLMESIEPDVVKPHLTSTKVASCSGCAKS
UniProt P61020: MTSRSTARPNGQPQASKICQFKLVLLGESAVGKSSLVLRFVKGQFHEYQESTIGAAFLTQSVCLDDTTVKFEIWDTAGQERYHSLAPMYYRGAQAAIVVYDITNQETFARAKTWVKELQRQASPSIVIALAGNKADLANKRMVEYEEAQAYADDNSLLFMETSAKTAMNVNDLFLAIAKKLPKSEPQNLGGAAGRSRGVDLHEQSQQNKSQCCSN
UniProt P57678: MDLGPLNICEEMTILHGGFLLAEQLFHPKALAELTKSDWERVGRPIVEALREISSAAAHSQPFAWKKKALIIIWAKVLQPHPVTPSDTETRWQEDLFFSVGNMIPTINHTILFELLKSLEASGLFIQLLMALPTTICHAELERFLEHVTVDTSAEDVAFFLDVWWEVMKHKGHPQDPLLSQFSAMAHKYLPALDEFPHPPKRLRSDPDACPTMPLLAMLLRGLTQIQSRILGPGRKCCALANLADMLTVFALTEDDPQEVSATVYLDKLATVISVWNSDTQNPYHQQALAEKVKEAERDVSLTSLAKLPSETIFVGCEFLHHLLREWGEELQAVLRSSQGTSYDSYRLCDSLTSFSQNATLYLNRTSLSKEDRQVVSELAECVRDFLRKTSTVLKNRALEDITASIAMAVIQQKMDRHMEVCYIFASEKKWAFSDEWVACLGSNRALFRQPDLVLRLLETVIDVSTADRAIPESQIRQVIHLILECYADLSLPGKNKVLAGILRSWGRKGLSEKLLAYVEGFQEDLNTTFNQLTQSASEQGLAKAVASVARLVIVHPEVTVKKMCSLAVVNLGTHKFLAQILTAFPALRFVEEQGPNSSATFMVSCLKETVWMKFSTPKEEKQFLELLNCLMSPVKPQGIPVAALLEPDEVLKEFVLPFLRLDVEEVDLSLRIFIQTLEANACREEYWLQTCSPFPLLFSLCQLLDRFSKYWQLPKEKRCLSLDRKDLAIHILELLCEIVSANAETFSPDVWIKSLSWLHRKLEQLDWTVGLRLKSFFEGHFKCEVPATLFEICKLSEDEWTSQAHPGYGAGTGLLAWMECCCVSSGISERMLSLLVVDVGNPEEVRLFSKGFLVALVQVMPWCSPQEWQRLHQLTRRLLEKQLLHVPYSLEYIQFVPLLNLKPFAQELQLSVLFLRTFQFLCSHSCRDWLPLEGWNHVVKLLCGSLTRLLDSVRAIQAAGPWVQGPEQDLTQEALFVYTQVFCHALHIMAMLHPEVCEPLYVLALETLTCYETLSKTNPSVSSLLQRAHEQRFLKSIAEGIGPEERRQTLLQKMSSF

compound: CN[C@@H]1C[C@H]2O[C@@](C)([C@@H]1OC)n1c3ccccc3c3c4c(c5c6ccccc6n2c5c31)C(=O)NC4 [staurosporine]; assay: log2 fold change of tryptic peptide abundance, ligand vs vehicle (limited proteolysis) (log2 ratio); higher = more trypsin-susceptible (destabilized); conditions: ligand concentration: 20 uM; sample: K562 cleared lysate; digestion: 4 min, 22 C (HT-PELSA RT4min, Orbitrap Astral)

| Target | log2 fold change |
| --- | --- |
| TMSB4X (peptide sequence: KTETQEKNPLPSK, peptide start residue: 20) (UniProt P62328) | -0.0879 |
| UniProt P57729 (peptide sequence: ATIGVDFALK, peptide start residue: 56) | -0.0141 |
| UniProt P61020 (peptide sequence: GVDLHEQSQQNK, peptide start residue: 198) | -0.0828 |
| MRPS34 (peptide sequence: LPLFGLGR, peptide start residue: 71) (UniProt P82930) | 0.236 |
| GEMIN4 (peptide sequence: VGRPIVEALR, peptide start residue: 42) (UniProt P57678) | 0.622 |
